Data published in publication PMC11079001.
Residue numbers refer to the chain shown, from its start. These are yes or no findings as the source states them, for the method shown. Binding seen in cells or lysates may run through a third protein. Some entries that bind do so weakly or less than the wild type. For some of these results: Tags and fused reporters may be left off the sequences shown.

Protein sequences, listed by entry. Tags and fused reporters are not part of them.
UniProt P52286: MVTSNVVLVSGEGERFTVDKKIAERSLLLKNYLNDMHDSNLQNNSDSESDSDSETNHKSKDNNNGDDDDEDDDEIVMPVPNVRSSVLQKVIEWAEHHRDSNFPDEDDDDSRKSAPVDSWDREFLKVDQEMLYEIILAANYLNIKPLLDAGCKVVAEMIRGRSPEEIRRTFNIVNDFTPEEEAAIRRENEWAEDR

What was measured:
Assay in all cases: co-IP; 12xMyc-Met30 variants immunoprecipitated on MYC-trap beads from 1 mg native yeast whole cell lysate (Triton X-100 buffer: 50 mM HEPES pH 7.5, 0.2% Triton X-100, 200 mM NaCl), overnight at 4 °C; co-precipitated Skp1 by western blot; cells untreated or treated with 100 µM CdCl2 (time courses); also H2O2 or zinc pre-treatment
[1] = target: T1, 12xMyc-Met30 C201S (S. cerevisiae) (UniProt P39014)
T1 sequence: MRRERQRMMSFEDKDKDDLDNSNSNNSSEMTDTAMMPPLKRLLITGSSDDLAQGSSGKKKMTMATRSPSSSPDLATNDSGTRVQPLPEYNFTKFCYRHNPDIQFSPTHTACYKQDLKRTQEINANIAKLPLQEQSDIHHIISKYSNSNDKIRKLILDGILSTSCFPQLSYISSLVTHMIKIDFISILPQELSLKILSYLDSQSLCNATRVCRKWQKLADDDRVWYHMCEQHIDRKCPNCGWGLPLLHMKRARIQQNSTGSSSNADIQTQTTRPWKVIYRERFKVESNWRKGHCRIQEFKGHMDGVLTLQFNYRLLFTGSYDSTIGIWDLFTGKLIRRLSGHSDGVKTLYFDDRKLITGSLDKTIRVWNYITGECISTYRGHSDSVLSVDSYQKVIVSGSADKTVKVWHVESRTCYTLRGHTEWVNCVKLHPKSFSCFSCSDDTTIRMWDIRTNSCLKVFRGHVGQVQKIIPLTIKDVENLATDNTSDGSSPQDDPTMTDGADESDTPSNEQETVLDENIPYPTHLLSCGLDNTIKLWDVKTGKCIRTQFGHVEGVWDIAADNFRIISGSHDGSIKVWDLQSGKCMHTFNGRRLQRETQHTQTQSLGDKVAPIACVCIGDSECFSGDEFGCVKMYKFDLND

[2] = target: T2, 12xMyc-Met30 C211S (S. cerevisiae) (UniProt P39014)
T2 sequence: T1 sequence with S201C, C211S

[3] = target: T3, Met30 H226R (S. cerevisiae) (UniProt P39014)
T3 sequence: T1 sequence with S201C, H226R

[4] = target: T4, 12xMyc-Met30^1-253 (S. cerevisiae) (UniProt P39014)
T4 sequence: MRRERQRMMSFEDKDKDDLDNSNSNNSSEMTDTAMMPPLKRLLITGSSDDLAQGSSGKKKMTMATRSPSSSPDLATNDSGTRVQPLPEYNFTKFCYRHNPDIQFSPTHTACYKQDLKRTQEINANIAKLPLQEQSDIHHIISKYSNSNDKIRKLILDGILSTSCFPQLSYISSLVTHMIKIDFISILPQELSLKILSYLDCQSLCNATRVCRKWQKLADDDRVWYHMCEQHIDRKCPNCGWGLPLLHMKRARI

binding [1]: binds
binding [2]: binds
binding [3]: binds
binding [4]: binds
Substance: Skp1 (from UniProt P52286 1-194)
